Data published in PubChem BioAssay AID651640 (Broad Institute, 2012).
Several values for one entry are separate records, joined by “and”; a condition that tells them apart may be missing. Equal entries are not always repeated. Screen size: about 350,000 compounds; about 6,000 (1.7%) were called active. Inconclusive means that the source gave no clear call. Such entries were picked first, then a sample of the others. No stated cut-off is given here; in the data, active means CPE inhibition above about 20% (passing the limit was not always enough); inconclusive means no clear call, values can overlap the other calls; tested in BHK-21 cells.

Experiment: protection of cells from dengue 2 killing – plate reader, single concentration, primary screen (AID 651640);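 further: 0% = median of neutral control wells and 100% = median of positive control wells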
Details: DENV2-infected cells, cytopathic effect rescue, at 9.99 µM, hits give high values

Compound | CPE inhibition
O=C(Nc1ccc(F)c(Cl)c1)c1ccccc1 | inactive: -1.26%
O=C(C1CC1)N1CC(=O)N2[C@@H](CO)[C@@H](c3ccc(C#CCc4ccccc4)cc3)[C@@H]2C1 | inconclusive: 40%
COc1cccc(-c2cc(CNC(=O)[C@H]3O[C@@H](n4cnc(C(N)=O)n4)[C@H](O)[C@@H]3O)no2)c1 | inconclusive: 28%
COc1cc(O)c2c(=O)c3c(O[C@H]4O[C@@H](CO)[C@H](O)[C@@H](O)[C@@H]4O)ccc(O)c3oc2c1 | inconclusive: 41.6%
COc1ccc(CN(C)C[C@@H]2OCCCC[C@H](C)Oc3ccc(NC(=O)CCC(F)(F)F)cc3C(=O)N([C@H](C)CO)C[C@H]2C)cc1 | active: 61.7%
Cc1ccc(-c2nc3cnccn3c2Nc2c(C)cccc2C)o1 | inconclusive: 49.4%
CC(C)[C@H](NC(=O)[C@@H]1CSC2c3ccccc3C(=O)N21)C(=O)N1CCCCC1 (stereo not given in full) | inconclusive: 30.8%
C[C@@H]1CN([C@@H](C)CO)C(=O)c2cc(N(C)C)ccc2O[C@@H](C)CCCCO[C@H]1CN(C)Cc1ccc2c(c1)OCO2 | inactive: -1.11%
Cc1noc(C)c1NC(=O)Nc1ccc2c(c1)C(=O)N([C@@H](C)CO)C[C@@H](C)[C@H](CN(C)C)O2 | inconclusive: 46.2%
COc1cccc(CNC(=O)C[C@H]2CC[C@H](NC(=O)C3CC3)[C@H](CO)O2)c1 | inactive: 0.13%
COc1ccc(S(=O)(=O)Nc2ccc3c(c2)CC(=O)N([C@@H](C)CO)C[C@@H](C)[C@@H](CN(C)S(=O)(=O)c2ccc(Cl)cc2)O3)cc1 | inactive: -13.6%
Nc1c(Cl)cc(C2=NCCn3nc4cc(C(F)(F)F)ccc4c32)cc1Cl | inconclusive: 23.5%
CCN1C(=O)[C@H]2[C@H]3CN=C(SCc4ccc(C#N)cc4)N3[C@@](Cc3ccccc3)(C(=O)OC)[C@H]2C1=O | inactive: 2.97%
CCCN(C(=O)c1cnccn1)c1c(N)n(Cc2ccccc2)c(=O)[nH]c1=O | inconclusive: 86.8%
CCS(=O)(=O)N1CC2(C1)[C@H](c1ccccc1)[C@@H](CO)N2C(=O)C1CC1 | active: 22.6%
COc1ccc(-c2ccc([C@H]3[C@H](CO)N4CCCCN(CC5CCOCC5)C[C@@H]34)cc2)cc1 | inconclusive: 23.8%
COc1cc(F)ccc1-c1csc(C(NC(C)=O)c2ccc(F)c(F)c2)n1 (stereo not given) | inconclusive: 20.9%
C[C@H](CO)N1C[C@H](C)[C@H](CN(C)S(=O)(=O)c2ccc(Cl)cc2)OCc2ccccc2-c2ccccc2C1=O | inactive: -3.44%
Cn1c(N)c(C(=O)COC(=O)c2cccc(S(=O)(=O)NCc3ccccc3)c2)c(=O)n(C)c1=O | inactive: 3.5%
CCOC(=O)C(=C1Nc2ccccc2N1)n1c(-c2cnccn2)nc2ccccc21 | active: 57.3%
C[C@H]1CCCCO[C@H](CN(C)S(=O)(=O)c2ccccc2)[C@@H](C)CN([C@@H](C)CO)C(=O)c2cc(NC(=O)Nc3ccc4c(c3)OCO4)ccc2O1 | active: 60.8%
COc1cccc(-c2ccc3c(N)c(C(=O)NC4CC4)sc3n2)c1 | inconclusive: 32.8%
COc1cc2c(cc1OC)C(Cc1ccc(O)cc1)N(C)CC2 (stereo not given) | inactive: -3.13%
C[C@@H]1CCCCO[C@@H](CN(C)Cc2ccc(C(=O)O)cc2)[C@H](C)CN([C@@H](C)CO)C(=O)c2cc(NS(=O)(=O)c3ccc(F)cc3)ccc2O1 | inconclusive: 40.9%

Compound | CPE inhibition
Cc1ccccc1C(=O)NC(=S)N(C)C1CCCCC1 | inconclusive: 32.9%
C[C@@H]1CN([C@H](C)CO)C(=O)c2cc(NC(=O)C3CCCCC3)ccc2O[C@@H](C)CCCCO[C@H]1CN(C)C(=O)Nc1ccc(C(F)(F)F)cc1 | inactive: -1.43%
COc1ccc2c3c([nH]c2c1)[C@@H](CO)N(Cc1nccs1)CC31CCN(Cc2cncnc2)CC1 | inactive: -0.243%
COc1ccc(NS(=O)(=O)c2cc(NC(=O)Cn3cnc4c3c(=O)n(C)c(=O)n4C)ccc2C)cc1 | inconclusive: 24.2%
Cn1c(CO)cnc1S(=O)(=O)Cc1ccc(Cl)cc1 | inactive: -7.75%
Cc1cccc(C)c1NC(=O)C1(C)CSCC(=O)N1Cc1cccc(C(F)(F)F)c1 (stereo not given) | active: 34.1%
Cc1noc(C)c1S(=O)(=O)Nc1ccc2c(c1)CC(=O)N([C@@H](C)CO)C[C@@H](C)[C@H](CN(C)C(=O)NC1CCCCC1)O2 | active: 22.4%
COCCNC(=O)CSc1nc(N)c(NC(=O)c2ccco2)c(=O)[nH]1 | active: 96.9%
CCCCC1OC2(C)OC(=N)C1(C#N)C(C#N)(C#N)C2c1ccccc1 (stereo not given) | active: 72.7%
CC(=O)Oc1ccc([C@@H]2COc3c(ccc4c3C=CC(C)(C)O4)C2)c(OC(C)=O)c1 | inconclusive: 22%
CC(=O)c1c(C)[nH]c(C(=O)OCc2cccc(Cl)c2)c1C | inconclusive: 39.1%
COc1ccc(S(=O)(=O)Nc2cccc3c2O[C@H](CN(C)Cc2ccncc2)[C@@H](C)CN([C@@H](C)CO)C3=O)cc1 | inconclusive: 24.4%
CCC(=O)N=c1sc2cc(F)cc(F)c2n1C | inconclusive: 26.5%
O=C(C[C@@H]1CC[C@@H]2[C@H](COC[C@@H](O)CN2Cc2ccc(F)cc2)O1)NCCc1ccccc1 | active: 28.1%
COc1ccc2c3c([nH]c2c1)[C@@H](CO)N(C(=O)c1cccnc1)CC31CN(Cc2ccccc2)C1 | active: 35.1%
COc1cccc(NC(=O)C2CCC2)c1 | inconclusive: 33%
CN1C(=O)c2cccc3c(N(C)C)ccc(c23)C1=O | inactive: 5.87%
Cc1ccc(C)c(CN2CCC(CNC(=O)Nc3ccc(Br)cc3F)CC2)c1 | inconclusive: 20%
O=C(NN1C(=O)c2ccccc2NC1c1ccccn1)c1ccc([N+](=O)[O-])cc1 (stereo not given) | inconclusive: 23.7%
O=S(=O)(c1ccccc1F)N1C[C@@H]2N[C@H](C1)C2c1ccc(/C=C/c2ccccc2)cc1 (stereo not given in full) | inactive: -2.8% and inactive: -5.07%
COc1ccc(-n2ccc(=O)c(C(=O)Nc3ccc(S(=O)(=O)Nc4nccs4)cc3)n2)cc1 | inconclusive: 26.5%
COC(=O)[C@]1(Cc2ccccc2)N[C@H](CN(C)C(=O)C2CCCCC2)[C@@H]2C(=O)N(C)C(=O)[C@@H]21 | inconclusive: 27.2%
O/N=C1\CCCc2ccc3ccccc3c21 | inconclusive: 30.3%
CC(=O)Nc1ccc(C(=O)CCl)cc1 | active: 26.9%

Grouped by structure: those above containing a cyano group
Compound | CPE inhibition
CCN1C(=O)[C@H]2[C@H]3CN=C(SCc4ccc(C#N)cc4)N3[C@@](Cc3ccccc3)(C(=O)OC)[C@H]2C1=O | inactive: 2.97%
CCCCC1OC2(C)OC(=N)C1(C#N)C(C#N)(C#N)C2c1ccccc1 (stereo not given) | active: 72.7%

The list continues:

Compound | CPE inhibition
Cc1ccc(C(=O)NCc2ccccn2)cc1S(=O)(=O)N1CCOCC1 | inconclusive: 32.6%
C[N+]1(CCCCSc2ccc(O)cc2)CCCCC1 | inconclusive: 67.5%
Nc1nnc(CC(=O)N/N=C/c2ccc(-c3ccc(F)cc3)o2)s1 | inactive: -4.09%
O=C(NNS(=O)(=O)c1ccc(Br)cc1)c1sccc1-n1cccc1 | inactive: 4.97%
O=C(O)C[C@@H]1CC[C@@H](NC(=O)Nc2ccccc2)[C@@H](CO)O1 | inactive: -0.0475%
CCn1c(SC(C)C(=O)NC2CCCC2)nc2cc(S(N)(=O)=O)ccc21 (stereo not given) | inconclusive: 55.2%
CCc1cc(Cn2nc(-c3ccccc3)cc2C(=O)NCc2ccc(C)cc2)on1 | active: 111%
Cc1noc(C)c1NC(=O)N(C)C[C@H]1Oc2ccc(NS(=O)(=O)c3ccc(F)cc3)cc2CC(=O)N([C@H](C)CO)C[C@H]1C | inactive: 6.95%
Cc1ccc(S(=O)(=O)Nc2ccc3c(c2)CC(=O)N([C@H](C)CO)C[C@@H](C)[C@@H](CN(C)C(=O)Nc2ccc(F)cc2)O3)cc1 | active: 24.8%
Cc1ccc(S(=O)(=O)N[C@H]2CC[C@@H](CC(=O)N3CCN(c4ccccc4)CC3)O[C@@H]2CO)cc1 | inactive: 8.36%
N#C[C@@H]1[C@@H](c2ccc(C#Cc3ccccc3F)cc2)[C@H](CO)N1C(=O)C1CCC1 | active: 29.6%
COc1ccc(S(=O)(=O)N(C)C[C@H]2OCCCC[C@H](C)Oc3ccc(NS(=O)(=O)c4cccs4)cc3C(=O)N([C@H](C)CO)C[C@H]2C)cc1 | active: 63.1%
O=C(c1ccccc1)N1CC(=O)N2[C@H](C1)[C@H](c1ccc(C#Cc3ccccc3)cc1)[C@@H]2CO | inactive: -3.92%
CC(C)NC(=O)Nc1ccc2c(c1)C(=O)N([C@H](C)CO)C[C@@H](C)[C@@H](CN(C)Cc1ccncc1)OCCCC[C@H](C)O2 | inconclusive: 23.6%
Cc1cc(C(=O)Nc2cccc3c2O[C@@H](CN(C)Cc2ccc(Oc4ccccc4)cc2)[C@H](C)CN([C@@H](C)CO)C3=O)n(C)n1 | inactive: -5.19%
Cc1nn(C)c(=S)[nH]c1=S | inconclusive: 27.6%
Cc1c(C(=O)O)cccc1[N+](=O)[O-] | inactive: -11.5%
COC(=O)c1sccc1NC(=O)Nc1ccc(C)cc1C | inconclusive: 45.4%
CO[C@@H]1CN(C)C(=O)c2ccc(NC(=O)Nc3ccccc3F)cc2OC[C@H](C)N(C)C[C@@H]1C | inactive: -5.43%
Cc1cc(Br)ccc1SCC(=O)OC/C(O)=C(\C#N)c1nc2ccccc2[nH]1 | inactive: 5.12%
CC=Cc1ccc2n(c1=O)C[C@H]1[C@H](CO)[C@@H](C(=O)NCC3CC3)N(C(C)=O)[C@@H]21 (mixture of isomers) | inconclusive: 23.2%
COc1ccc(CCN2CC(C(=O)NCCc3cn[nH]c3)CCC2=O)cc1 (stereo not given) | active: 87.6%

Reformatted field by field: 2 of the compounds above.
CC(=O)c1c(C)[nH]c(C(=O)OCc2cccc(Cl)c2)c1C
  CPE inhibition: inconclusive: 39.1%
COc1ccc(S(=O)(=O)Nc2cccc3c2O[C@H](CN(C)Cc2ccncc2)[C@@H](C)CN([C@@H](C)CO)C3=O)cc1
  CPE inhibition: inconclusive: 24.4%
